Results are given in words; binding and its absence hold for the method and conditions named. In cells and extracts the contact can be indirect. A result given as binding can be weak or reduced; the word gives no strength.

This experiment concerns the target Mycoplasma fermentans DnaK-V5-His (Mycoplasma fermentans). The experiment is described as follows: co-IP.

B1: DNA ligase 3 (protein, UniProt P49916 43-1009)
chain: LLHGHPLFLRRKPVLSFQGSHLRSRATYLVFLPGLHVGLCSGPCEMAEQRFCVDYAKRGTAGCKKCKEKIVKGVCRIGKVVPNPFSESGGDMKEWYHIKCMFEKLERARATTKKIEDLTELEGWEELEDNEKEQITQHIADLSSKAAGTPKKKAVVQAKLTTTGQVTSPVKGASFVTSTNPRKFSGFSAKPNNSGEAPSSPTPKRSLSSSKCDPRHKDCLLREFRKLCAMVADNPSYNTKTQIIQDFLRKGSAGDGFHGDVYLTVKLLLPGVIKTVYNLNDKQIVKLFSRIFNCNPDDMARDLEQGDVSETIRVFFEQSKSFPPAAKSLLTIQEVDEFLLRLSKLTKEDEQQQALQDIASRCTANDLKCIIRLIKHDLKMNSGAKHVLDALDPNAYEAFKASRNLQDVVERVLHNAQEVEKEPGQRRALSVQASLMTPVQPMLAEACKSVEYAMKKCPNGMFSEIKYDGERVQVHKNGDHFSYFSRSLKPVLPHKVAHFKDYIPQAFPGGHSMILDSEVLLIDNKTGKPLPFGTLGVHKKAAFQDANVCLFVFDCIYFNDVSLMDRPLCERRKFLHDNMVEIPNRIMFSEMKRVTKALDLADMITRVIQEGLEGLVLKDVKGTYEPGKRHWLKVKKDYLNEGAMADTADLVVLGAFYGQGSKGGMMSIFLMGCYDPGSQKWCTVTKCAGGHDDATLARLQNELDMVKISKDPSKIPSWLKVNKIYYPDFIVPDPKKAAVWEITGAEFSKSEAHTADGISIRFPRCTRIRDDKDWKSATNLPQLKELYQLSKEKADFTVVAGDEGSSTTGGSSEENKGPSGSAVSRKAPSKPSASTKKAEGKLSNSNSKDGNMQTAKPSAMKVGEKLATKSSPVKVGEKRKAADETLCQTKVLLDIFTGVRLYLPPSTPDFSRLRRYFVAFDGDLVQEFDMTSATHVLGSRDKNPAAQQVSPEWIWACIRKRRLVAPC
For B1, the binding result is given as “binds”.

These data come from publication PMC9651203.
